This experiment has as its target T1, rat NTR1 (Rattus norvegicus, UniProt P20789).
T1 construct: expressed in transfected cells; host or cells: CHO-K1
The experiment in a line: Competition binding with [3H]NT, membranes of CHO-K1 cells transfected with rat NTR1. The settings on record: read-out: Kd rNTR (Table VII). The protocol: CHO-K1 cells were stably transfected with nucleic acid encoding either the human NTR1 or the rat NTR1, and cultured in 150 mm petri plates with 35 mL of Dulbecco-modified Eagle's medium containing 100 μM minimal essential medium nonessential amino acids (GIBCO) supplemented with 5% (v/v) FetalClone II bovine serum product (Hyclone Labs, Logan, Utah). CHO cells (subculture 9–19) were harvested at confluency. Briefly, the medium from each plate was removed by aspiration, and the cells washed with 6 mL of 50 mM Tris-HCl (pH 7.4) and resuspended in 5–10 mL of Tris-HCl by scraping the cells with a rubber spatula. The resuspended cells were placed into a centrifuge tube and collected by centrifugation at 300× g for five minutes at 4° C. in a GPR centrifuge (Beckman Instruments, Fullerton, Calif.). The cellular pellet (in 50 mM Tris-HCl, 1 mM EDTA, pH 7.4) was stored at […] until radioligand binding was performed.
The supernatant was decanted and discarded, and the cellular pellet was resuspended in 2 mL of Tris-HCl, 1 mM EDTA (pH 7.4) followed by homogenization with a Brinkmann Polytron at setting 6 for ten seconds. Centrifugation was repeated as above and the supernatant was decanted and discarded. The resulting final cellular pellet was resuspended in 50 mM Tris-HCl, lmM EDTA, 0.1% bovine serum albumin, and 0.2 mM bacitracin.
Incubation was at 20° C. for 30 minutes. […]

By UniProt entry, the sequences of proteins in these tests, tags left out.
UniProt P20789, whole entry: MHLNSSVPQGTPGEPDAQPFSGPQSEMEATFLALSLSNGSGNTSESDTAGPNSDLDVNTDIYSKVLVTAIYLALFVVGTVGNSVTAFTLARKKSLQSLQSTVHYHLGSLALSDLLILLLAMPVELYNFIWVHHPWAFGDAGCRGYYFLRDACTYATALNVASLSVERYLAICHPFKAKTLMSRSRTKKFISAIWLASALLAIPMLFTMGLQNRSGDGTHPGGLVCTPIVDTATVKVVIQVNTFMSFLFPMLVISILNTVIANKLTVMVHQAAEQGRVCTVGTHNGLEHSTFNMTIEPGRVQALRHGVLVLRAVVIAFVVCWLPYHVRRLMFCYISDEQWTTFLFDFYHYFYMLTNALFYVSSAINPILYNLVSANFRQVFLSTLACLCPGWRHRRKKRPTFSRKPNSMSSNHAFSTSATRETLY

SMILES strings stand for the structures.

One may read the Kd as the concentration at which binding is half-saturated. For `CN1CCN(C2=Nc3cc(Cl)ccc3Nc3ccccc32)CC1` [Clozapine, reference compound], the Kd is over 100 µM. Under `O=C(CCCN1CCC(O)(c2ccc(Cl)cc2)CC1)c1ccc(F)cc1` [Haloperidol, reference compound] stands over 100 µM.

The record behind these values is patent US7098307B2, “Neo-tryptophan” (Mayo Foundation for Medical Education and Research, priority 1998, dated 2006).
